Out of some 360,000 compounds screened, about 1,800 (0.5%) were called active. The inconclusive results got no clear call from the source; some entries with a clear call stand among them for comparison.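 How the source made its calls: active means mean inhibition of at least 75% with every replicate also reaching 75%; inconclusive means mean inhibition at least 75% but some replicate below; inactive means mean inhibition below 75%.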
Assay: reduction of Shn3 3'UTR firefly luciferase signal, primary screen, Schnurri-3 inhibitor project, cell-based, Clone20 osteoblasts, set 2 (AID 588674);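 further: 0% = median of neutral control wells and 100% = pilot-screen positive control compound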
Settings: Clone20 osteoblast Shn3 3'UTR firefly luciferase, 24 h; at 12.5 µM; hits give high values

Structure (SMILES) | inhibition
OC[C@@H]1CN(Cc2ccc(-c3ccccc3)cc2)C[C@H](n2cnc3c(NC4CCC4)ncnc32)O1 | inconclusive: 81.3%
COc1ccc(C(=O)OCC(=O)Nc2ccc3[nH]c(=O)[nH]c3c2)cc1 | inconclusive: 85.9%
COc1ccc(-c2cn3cc(C)ccc3n2)cc1F | inactive: -1.21%
O=c1[nH][nH]c2cc([N+](=O)[O-])ccc12 | inactive: 6.34%
COc1ccc(NC(=O)/C=C/c2c(Cl)nc3ccccn23)cc1 | inactive: -17%
CCN(CC)S(=O)(=O)c1ccc(N/N=C/c2ccc(O)cc2O)nc1 | inconclusive: 86.5%
COc1ccc(Nc2nccc(-c3ccc(C#N)cc3)n2)cc1 | inactive: 10.7%
COc1ccc(-c2cc(C3CCN(c4ccc(C(C)=O)cc4[N+](=O)[O-])CC3)[nH]n2)cc1 | inconclusive: 80.1%
COc1ccc(C)cc1NS(=O)(=O)c1ccc(-c2cnc(C3CC3)o2)cc1 | active: 89.6%
S=C(SSC(=S)N1CCOCC1)N1CCOCC1 | active: 89.6%
CCOc1ccc(-n2c(-c3ccccc3)c[n+]3c2CCCCC3)cc1 | inconclusive: 85.5%
COc1ccc(-n2ncc(Cl)c(Cl)c2=O)cc1 | active: 97.7%
CC(=O)NCCc1ccc(C(=O)COC(=O)c2ccco2)cc1 | inactive: -28.3%
CCOC1=C2[C@H](c3ccccc3)N(S(=O)(=O)c3ccc(C)cc3)C(C(C)(C)C)[C@H]2C(C#N)(C#N)C(C#N)(C#N)C1 (stereo not given in full) | active: 86.9%
Cc1cc(NCCCN2CCOCC2)n2ncc(-c3ccccc3)c2n1 | inactive: -35%
CCC(C)Nc1nc(-c2ccccn2)nc2ccccc12 (stereo not given) | inconclusive: 86.9%
CCCCN(c1nc2ccccc2nc1Cl)S(=O)(=O)c1ccc(C)cc1 | inconclusive: 87.6%
CC12CCC(C3NC(=S)NN=C31)C2(C)C (stereo not given) | inconclusive: 80%
CC(C)(C)C(=O)/C(=C/c1ccncc1)n1cncn1 | active: 97.8%
O=C(/C=C/c1ccccc1)NC(NC(=S)Nc1ccc(Cl)cc1)C(Cl)(Cl)Cl (stereo not given) | inconclusive: 86.2%
COc1ccc(NC(=O)C2Cc3c(-c4cccc(F)c4)ccnc3O2)cc1OC (stereo not given) | inconclusive: 82.5%
O=C(/C=C/c1ccc(Br)cc1)c1ccco1 | inactive: 16.6%
O=C(N/N=C/c1cc(Br)ccc1OC(=O)c1ccc(Br)cc1)c1ccncc1 | inconclusive: 85.1%
CSc1nnc(-c2ccco2)n1-c1ccccc1 | active: 88.8%
CC(=O)N1c2ccc(S(=O)(=O)N3CCC(C(=O)N4CCN(c5ccccc5F)CC4)CC3)cc2CC1C (stereo not given) | inconclusive: 86%

Two entries from above in a different format:
COc1ccc(-c2cn3cc(C)ccc3n2)cc1F
  inhibition: inactive: -1.21%
COc1ccc(NC(=O)/C=C/c2c(Cl)nc3ccccn23)cc1
  inhibition: inactive: -17%

Reference: PubChem BioAssay AID588674 (Broad Institute, 2011)
